Experiment [1] has as its target Myc-tagged Frz8CRD (Frz8CRD-Myc), cysteine-rich domain of Frizzled 8 (Mus musculus (Mouse)). Description: IP/western, Frz8CRD-Myc with IGFBP-4-V5.
Experiment [2] has the same target. The experiment in a line: IP/western.
For experiment [3] the target is unchanged. Description: IP/western, Frz8-Myc with V5-tagged IGFBP.

Results on four molecules are retold here after patent US20110243899A1 (NATIONAL UNIVERSITY CORPORATION CHIBA UNIVERSITY, published 2011).

These are yes or no findings as the source states them, for the method shown. A result given as binding can be weak or reduced; the word gives no strength. Sequences can lack the tags named with a protein.

B1: V5-tagged IGFBP4 (IGFBP-4-V5) (protein, mouse, UniProt P47879 22-254, looked up, not shown: small tags and cut ends)
chain: DEAIHCPPCSEEKLARCRPPVGCEELVREPGCGCCATCALGLGMPCGVYTPRCGSGMRCYPPRGVEKPLRTLMHGQGVCTELSEIEAIQESLQTSDKDESEHPNNSFNPCSAHDHRCLQKHMAKIRDRSKMKIVGTPREEPRPVPQGSCQSELHRALERLAASQSRTHEDLFIIPIPNCDRNGNFHPKQCHPALDGQRGKCWCVDRKTGVKLPGGLEPKGELDCHQLADSFQE
B1: the binding result in experiment [1], in experiment [2] and in experiment [3] was “binds” throughout.

B2: IGFBP-6 (V5-tagged) (protein, mouse, UniProt P47880 26-238, looked up, not shown: small tags and cut ends)
chain: ALAGCPGCGAGMQTGCRGGCVEEEDAGSPADGCTEAGGCLRREGQPCGVYSPKCAPGLQCQPRENEEAPLRALLIGQGRCQRARGPSEETTKESKPQGGASRSRDTNHRDRQKNPRTSAAPIRPNPVQDSEMGPCRRHLDSVLQQLQTEVFRGGARGLYVPNCDLRGFYRKQQCRSSQGNRRGPCWCVDPMGQPLPVSPDGQGSTQCSARSSG
Consider B2, for which the binding result in experiment [2] and in experiment [3] was “binds” in each case.

B3: IGFBP-1 (V5-tagged) (protein, mouse, UniProt P47876 26-272, looked up, not shown: small tags and cut ends)
chain: APQPWHCAPCTAERLGLCPPVPASCPEISRPAGCGCCPTCALPMGAACGVATARCAQGLSCRALPGEPRPLHALTRGQGACVPEPAAPATSTLFSSQHEEAKAAVVSADELSESPEMTEEQLLDSFHLMAPSREDQPILWNAISTYSSMRAREIADLKKWKEPCQRELYKVLERLAAAQQKAGDEIYKFYLPNCNKNGFYHSKQCETSLDGEAGLCWCVYPWSGKKIPGSLETRGDPNCHQYFNVHN
B3: the binding result in experiment [2] and in experiment [3] was “binds” each time.

B4: IGFBP-2 (V5-tagged) (protein, mouse, UniProt P47877 35-305, looked up, not shown: small tags and cut ends)
chain: EVLFRCPPCTPERLAACGPPPDAPCAELVREPGCGCCSVCARQEGEACGVYIPRCAQTLRCYPNPGSELPLKALVTGAGTCEKRRVGTTPQQVADSDDDHSEGGLVENHVDGTMNMLGGGSSAGRKPLKSGMKELAVFREKVNEQHRQMGKGAKHLSLEEPKKLRPPPARTPCQQELDQVLERISTMRLPDDRGPLEHLYSLHIPNCDKHGRYNLKQCKMSLNGQRGECWCVNPNTGKPIQGAPTIRGDPECHLFYNEQQETGGAHAQSVQ
B4: the binding result in experiment [2] and in experiment [3] was “binds” in each case.
